According to PubChem BioAssay AID1671194 (National Center for Advancing Translational Sciences (NCATS), 2021):
The whole screen tested about 140,000 compounds, of which about 240 (0.17%) were called active. The source calls these results inconclusive, neither active nor inactive. The call rests on the fitted dose curve; in most records, active means well fitted inhibition curve with a large enough effect; inconclusive means small, poorly fitted or top-dose-only effect; inactive means no such curve, though single readings can be large or run the other way.

Experiment: Primary qHTS assay for inhibitors of alpha-synuclein gene (SNCA) expression; further: nearly all actives have a fitted effect of over 45% in size
Settings: HEK-293 SNCA-luciferase knock-in, luminescence, 24 h
Description: Assay Submitter (PI): Daniel R. Scoles Ph.D.
Department of Neurology, University of Utah, Salt Lake City, Utah
Accumulation of alpha-synuclein is a main underlying pathological feature of Parkinson's disease (PD) and alpha-synucleinopathies, for which lowering expression of the alpha-synuclein gene (SNCA) is a potential therapeutic avenue. Using a cell-based luciferase reporter of SNCA expression we performed a quantitative high throughput screen (qHTS) of 155,885 compounds in dose response. The screening assay was generated using genome editing to insert the luciferase gene downstream and in frame of the SNCA gene in HEK-293 cells (1). A viability counterscreen using GF-AFC was used to eliminate cytotoxic and false positive compounds. […]
7; Detector; Fluorescence; Measure fluorescence with ViewLux microplate reader (PerkinElmer) equipped with 405/10 excitation and 540/25 emission filters. […]
10; Detector; Luminescence; Measure luminescence with ViewLux microplate reader (PerkinElmer) equipped with clear filters. […]
10; Signals were analyzed, and dose-response curves were fit using the Hill equation. […]
Potency means the concentration at half of the fitted maximal effect.

Compound | Potency
CCCOc1cccc(C(=O)NCC2(N3CCOCC3)CCCCC2)c1 | inconclusive: 15.8 µM
CCCCOc1ccccc1C(=O)NCC1(N2CCOCC2)CCCCC1 | inconclusive: 17.8 µM
